Assay results taken from patent publication US20160250288A1.
Results are given in words; binding and its absence hold for the method and conditions named. Binding seen in cells or lysates may run through a third protein. Some binding calls cover weakened binding; strength is not graded here.

Amino acid sequences for entries named in this document (tags omitted). A change or cut given only in a name is not applied to a line headed by its entry.
UniProt P32114: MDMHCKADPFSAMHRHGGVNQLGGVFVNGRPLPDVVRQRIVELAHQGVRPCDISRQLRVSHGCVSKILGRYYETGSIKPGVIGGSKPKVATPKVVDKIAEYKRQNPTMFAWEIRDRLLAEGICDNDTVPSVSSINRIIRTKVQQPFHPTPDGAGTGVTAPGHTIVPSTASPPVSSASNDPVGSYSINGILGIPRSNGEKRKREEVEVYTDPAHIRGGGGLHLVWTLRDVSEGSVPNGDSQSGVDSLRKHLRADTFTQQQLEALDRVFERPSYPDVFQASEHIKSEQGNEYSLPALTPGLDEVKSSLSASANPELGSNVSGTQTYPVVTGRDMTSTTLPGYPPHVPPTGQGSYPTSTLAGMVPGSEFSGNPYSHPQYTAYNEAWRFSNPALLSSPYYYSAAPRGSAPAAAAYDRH
UniProt Q2NKI2: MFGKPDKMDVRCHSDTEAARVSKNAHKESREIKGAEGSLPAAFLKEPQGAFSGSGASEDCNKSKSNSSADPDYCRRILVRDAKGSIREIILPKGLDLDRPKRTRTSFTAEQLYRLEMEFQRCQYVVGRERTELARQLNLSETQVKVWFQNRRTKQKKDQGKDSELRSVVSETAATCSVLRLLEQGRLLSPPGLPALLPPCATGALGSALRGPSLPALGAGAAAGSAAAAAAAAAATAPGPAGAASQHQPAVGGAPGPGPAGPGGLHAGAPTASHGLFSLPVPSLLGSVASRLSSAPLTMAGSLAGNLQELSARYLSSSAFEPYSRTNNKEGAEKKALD

Legend:
[1] = biological target: Pax2, endogenous in mouse optic nerve (mouse) (UniProt P32114); assay: co-immunoprecipitation with anti-Vax1 antibody, Western blot, E14.5 mouse optic nerve, with and without 1 mg/ml heparin
[2] = biological target: Pax2, endogenous in mouse optic nerve (mouse) (UniProt P32114); assay: co-immunoprecipitation with anti-Vax1 antibody, E14.5 mouse optic nerve treated with heparin

binding [1]: binds
binding [2]: binds
Substance: Vax1 (ventral anterior homeobox 1), mouse (from UniProt Q2NKI2 1-338)
